Paper PMC4081824
No constants are given. Whether binding was seen depends on the method and setting. Binding seen in cells or lysates may run through a third protein. Some binding calls cover weakened binding; strength is not graded here. For some assays here: Where a sequence is shown, tags or fusion partners need not be part of it.

By UniProt entry, the sequences of proteins in these tests, tags left out. Residues count along the entry.
UniProt Q12846: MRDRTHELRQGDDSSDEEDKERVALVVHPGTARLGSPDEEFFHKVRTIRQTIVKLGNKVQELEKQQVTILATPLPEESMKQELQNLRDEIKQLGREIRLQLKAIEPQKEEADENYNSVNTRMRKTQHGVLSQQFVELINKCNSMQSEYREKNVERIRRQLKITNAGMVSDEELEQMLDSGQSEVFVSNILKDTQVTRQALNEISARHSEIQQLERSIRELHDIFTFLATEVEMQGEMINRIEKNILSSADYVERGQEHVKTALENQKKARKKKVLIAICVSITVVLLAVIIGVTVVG
UniProt Q5ZSQ3, residues 501-647: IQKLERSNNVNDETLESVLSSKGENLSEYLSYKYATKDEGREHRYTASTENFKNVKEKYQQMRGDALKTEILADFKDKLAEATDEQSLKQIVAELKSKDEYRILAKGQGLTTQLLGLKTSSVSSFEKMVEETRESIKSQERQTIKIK

What was measured:
[1] = target: FLAG-tagged syntaxin 4 (UniProt Q12846); assay: co-IP
[2] = target: T1, FLAG-tagged syntaxin 3 (UniProt Q13277); assay: co-IP
T1 sequence: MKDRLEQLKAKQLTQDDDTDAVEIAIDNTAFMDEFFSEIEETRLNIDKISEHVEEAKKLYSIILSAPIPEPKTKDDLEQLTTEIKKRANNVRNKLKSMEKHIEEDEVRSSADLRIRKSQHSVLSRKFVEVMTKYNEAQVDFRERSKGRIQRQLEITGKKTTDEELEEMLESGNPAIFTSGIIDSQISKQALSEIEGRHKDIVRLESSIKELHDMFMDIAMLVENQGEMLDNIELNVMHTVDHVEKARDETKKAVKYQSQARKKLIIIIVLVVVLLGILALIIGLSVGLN

Q: For “GFP-tagged DrrA 501-647 (LEPR region, PI4P-binding domain) (from UniProt Q5ZSQ3 501-647) (domain or fragment)”, which binding [1] is on record?
A: binds

Q: And the binding [2]?
A: binds
